According to doi:10.1101/2025.07.28.666126:

Molecular target: Flag p21 WT, P38936
Experiment: affinity purification with mass spectrometry
Details: remark: other sources report otherwise

binding: binds
B1: CDK4, P11802 1-303 (protein)
chain: MATSRYEPVAEIGVGAYGTVYKARDPHSGHFVALKSVRVPNGGGGGGGLPISTVREVALLRRLEAFEHPNVVRLMDVCATSRTDREIKVTLVFEHVDQDLRTYLDKAPPPGLPAETIKDLMRQFLRGLDFLHANCIVHRDLKPENILVTSGGTVKLADFGLARIYSYQMALTPVVVTLWYRAPEVLLQSTYATPVDMWSVGCIFAEMFRRKPLFCGNSEADQLGKIFDLIGLPPEDDWPRDVSLPRGAFPPRGPRPVQSVVPEMEESGAQLLLEMLTFNPHKRISAFRALQHSYLHKDEGNPE

These are yes or no findings as the source states them, for the method shown. In cells and extracts the contact can be indirect. Here binding means that the protein was enriched with, or labelled near, the bait; the list need not be complete.
